Reference: US7094407B2 (LG Household & Health Care Ltd., priority 2002, dated 2006)
Where a sequence shows no end group, the ends are not given.

Assay: general procedure: Fmoc solid-phase peptide synthesis; HMP resin; HOBT
Settings: whole synthesis, scale 0.25 mmol

Sequence: KKKKKKKKKKTKS
- isolated yield: approximately 30.5%
